PubChem BioAssay AID1508588 – Peter MacCallum Cancer Centre | 2020
The whole screen tested about 18,000 reagents; this is a random part of them. Over the whole deposit, 790 (4.4%) got an active call. 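Calls rest on a combination of fold-change classes in drug and vehicle arms, not all shown here.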

Aim: 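Knock-downs boosting vemurafenib effects on melanoma cell growth or lactate release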 (primary screen)
Cell system: human WM266.4 melanoma cells (BRAF V600 mutant)
Knock-down reagent: siRNA pool against human genes, 40 nM
Timing: 96 h from transfection to read-out
Conditions: vemurafenib 300 nM (about IC25), added 48 h after transfection, for 48 h; comparison arm got DMSO vehicle only
Measurement: 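Cell gain (DAPI nuclei at end minus before drug, mean of two replicates) and medium lactate by absorbance per cell, both as ratio to non-targeting siRNA, also grouped into fold-change classes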
Scale: cell gain with vemurafenib: higher = more cell gain than with non-targeting siRNA; lactate per cell with vemurafenib: higher = more lactate made per cell
Active means: 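a knock-down counts as enhancing when its fold-change classes with vehicle and with vemurafenib, taken together, show a stronger drug effect on cell gain or lactate per cell; exact class pairs not stated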
Calls: active = enhances vemurafenib effect; inactive = no enhancement seen

| Gene | cell gain with vemurafenib | lactate per cell with vemurafenib | outcome |
| --- | --- | --- | --- |
| SST (GeneID 6750) | 1.02 | 0.56 | inactive |
| CAPSL (GeneID 133690) | 0.49 | 0.97 | inactive |
| RSRC2 (GeneID 65117) | 0.61 | 1.15 | inactive |
| KIF26A (GeneID 26153) | 0.41 | 1.92 | inactive |
| PLAC8L1 (GeneID 153770) | 0.73 | 0.86 | inactive |
| OR5H14 (GeneID 403273) | 0.33 | 1.08 | inactive |
| MCC (GeneID 4163) | 0.78 | 0.48 | active |
| VDAC3 (GeneID 7419) | 0.25 | 0.65 | inactive |
| SLITRK3 (GeneID 22865) | 0.31 | 0 | active |
| IL18RAP (GeneID 8807) | 0.66 | 0.94 | inactive |
| FRRS1L (GeneID 23732) | 0.22 | 2.32 | inactive |
| PSRC1 (GeneID 84722) | 0.55 | 0.93 | inactive |
| LHB (GeneID 3972) | 0.46 | 1.39 | inactive |
| C1orf159 (GeneID 54991) | 0.6 | 0.22 | inactive |
| SLFN12 (GeneID 55106) | 0.83 | 0.76 | inactive |
| FABP6 (GeneID 2172) | 0.45 | 1.7 | inactive |
| SCN1A (GeneID 6323) | 0.5 | 0.9 | inactive |
| ALDH1A3 (GeneID 220) | 0.31 | 0.62 | active |
| COL11A2 (GeneID 1302) | 0.54 | 1.92 | inactive |
| DHX35 (GeneID 60625) | 0.62 | 0.93 | inactive |
| CCL4L2 (GeneID 9560) | 0.9 | 0.6 | inactive |
| SLFN13 (GeneID 146857) | 0.47 | 0.63 | inactive |
| SFT2D1 (GeneID 113402) | 0.72 | 0.48 | active |
| ITGA9 (GeneID 3680) | 1.11 | 0.68 | inactive |
| JRKL (GeneID 8690) | 1.11 | 1.03 | inactive |
| TRIM36 (GeneID 55521) | 0.79 | 0.92 | inactive |
| TRAFD1 (GeneID 10906) | 1.1 | 1.02 | inactive |
| FCGR2A (GeneID 2212) | 0.35 | 0.97 | inactive |
| RHOB (GeneID 388) | 0.4 | 1.15 | inactive |
| IRS2 (GeneID 8660) | 0.36 | 1.04 | inactive |
| TMTC3 (GeneID 160418) | 1.1 | 0.85 | inactive |
| NDUFAF7 (GeneID 55471) | 0.84 | 1.04 | inactive |
| SERPINA5 (GeneID 5104) | 0.35 | 0.54 | inactive |
| TLK2 (GeneID 11011) | 0.37 | 1.25 | inactive |
| ZNF823 (GeneID 55552) | 0.96 | 0.57 | inactive |
| LIPF (GeneID 8513) | 1.22 | 0.54 | inactive |
| CKS1B (GeneID 1163) | 0.62 | 0.48 | inactive |
| FEZ1 (GeneID 9638) | 0.65 | 0.72 | inactive |
| RABL6 (GeneID 55684) | 0.25 | 1.66 | inactive |
| DMRT2 (GeneID 10655) | 0.29 | 1.42 | inactive |
| SYNE4 (GeneID 163183) | 0.69 | 1.02 | inactive |
| RBPJL (GeneID 11317) | 0.67 | 0.84 | inactive |
| SRXN1 (GeneID 140809) | 0.41 | 1.27 | inactive |
| SMG5 (GeneID 23381) | 0.68 | 0.9 | inactive |
| PDIA5 (GeneID 10954) | 0.64 | 0.98 | inactive |
| FAM221A (GeneID 340277) | 1.43 | 0.69 | inactive |
| SLC38A5 (GeneID 92745) | 0.33 | 0.4 | active |
| CENPO (GeneID 79172) | 0.93 | 1.31 | inactive |
| TECRL (GeneID 253017) | 0.46 | 1.04 | inactive |
| WDR83 (GeneID 84292) | 0.14 | 2.65 | inactive |
| TRIM73 (GeneID 375593) | 0.78 | 0.92 | inactive |
| NHS (GeneID 4810) | 0.54 | 0.76 | inactive |
| ZBTB39 (GeneID 9880) | 0.71 | 1.52 | inactive |
| DUX1 (GeneID 26584) | 0.67 | 1.2 | inactive |
| ASB13 (GeneID 79754) | 0.57 | 1.23 | inactive |
| CGA (GeneID 1081) | 0.45 | 0.36 | inactive |
| DUSP5 (GeneID 1847) | 0.76 | 0.6 | inactive |

7 entries from above, set out differently.
{"Gene":"CKS1B (GeneID 1163)","cell gain with vemurafenib":0.62,"lactate per cell with vemurafenib":0.48,"outcome":"inactive"}
{"Gene":"FEZ1 (GeneID 9638)","cell gain with vemurafenib":0.65,"lactate per cell with vemurafenib":0.72,"outcome":"inactive"}
{"Gene":"RABL6 (GeneID 55684)","cell gain with vemurafenib":0.25,"lactate per cell with vemurafenib":1.66,"outcome":"inactive"}
{"Gene":"DMRT2 (GeneID 10655)","cell gain with vemurafenib":0.29,"lactate per cell with vemurafenib":1.42,"outcome":"inactive"}
{"Gene":"SYNE4 (GeneID 163183)","cell gain with vemurafenib":0.69,"lactate per cell with vemurafenib":1.02,"outcome":"inactive"}
{"Gene":"RBPJL (GeneID 11317)","cell gain with vemurafenib":0.67,"lactate per cell with vemurafenib":0.84,"outcome":"inactive"}
{"Gene":"SRXN1 (GeneID 140809)","cell gain with vemurafenib":0.41,"lactate per cell with vemurafenib":1.27,"outcome":"inactive"}
